No constants are given. Whether binding was seen depends on the method and setting. Binding seen in cells or lysates may run through a third protein. Where a sequence is shown, tags or fusion partners need not be part of it.
How the values were obtained:
Assay in all cases: co-IP
[1] = biological target: Gαo-GFP E237K (human) (UniProt P09471)
[2] = biological target: Gαo-GFP Q233P (human) (UniProt P09471)
[3] = biological target: Gαo-GFP G40R (human) (UniProt P09471)
[4] = biological target: Gαo-GFP G45E (human) (UniProt P09471)
[5] = biological target: Gαo-GFP L199P (human) (UniProt P09471)
[6] = biological target: Gαo-GFP C215Y (human) (UniProt P09471)
[7] = biological target: Gαo-GFP F275S (human) (UniProt P09471)
[8] = biological target: Gαo-GFP N270H (human) (UniProt P09471)
[9] = biological target: Gαo-GFP Y231C (human) (UniProt P09471)
[10] = biological target: Gαo-GFP D174G (human) (UniProt P09471)
[11] = biological target: Gαo-GFP A227V (human) (UniProt P09471)
[12] = biological target: Gαo-GFP I279N (human) (UniProt P09471)
[13] = biological target: Gαo-GFP S47G (human) (UniProt P09471)
[14] = biological target: Gαo-GFP R209C (human), P09471; settings: remark: other sources report otherwise
[15] = biological target: Gαo-GFP E246K (human), P09471; settings: remark: other sources report otherwise
[16] = biological target: Gαo-GFP G203R (human), P09471; settings: remark: other sources report otherwise

Amino acid sequences for entries named in this document (tags omitted). A change or cut given only in a name is not applied to a line headed by its entry.
UniProt P09471: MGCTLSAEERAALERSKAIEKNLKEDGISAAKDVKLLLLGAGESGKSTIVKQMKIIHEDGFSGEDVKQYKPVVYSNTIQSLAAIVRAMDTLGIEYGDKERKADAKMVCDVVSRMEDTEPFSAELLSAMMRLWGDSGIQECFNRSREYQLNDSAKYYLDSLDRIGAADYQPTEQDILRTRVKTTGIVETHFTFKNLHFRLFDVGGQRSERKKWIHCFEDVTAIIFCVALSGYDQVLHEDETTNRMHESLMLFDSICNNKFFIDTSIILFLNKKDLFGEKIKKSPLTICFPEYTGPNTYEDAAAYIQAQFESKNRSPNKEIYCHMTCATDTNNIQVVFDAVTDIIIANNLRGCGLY

Measured: binding

B1: His6-tagged RGS19 (protein, UniProt P49795 1-217)
chain: MPTPHEAEKQITGPEEADRPPSMSSHDTASPAAPSRNPCCLCWCCCCSCSWNQERRRAWQASRESKLQPLPSCEVCATPSPEEVQSWAQSFDKLMHSPAGRSVFRAFLRTEYSEENMLFWLACEELKAEANQHVVDEKARLIYEDYVSILSPKEVSLDSRVREGINKKMQEPSAHTFDDAQLQIYTLMHRDSYPRFLSSPTYRALLLQGPSQSSSEA
not listed: [14] | [15] | [16]
no binding: all other assays above

B2: His6-tagged RGS19, P49795 1-217 (protein)
chain: MPTPHEAEKQITGPEEADRPPSMSSHDTASPAAPSRNPCCLCWCCCCSCSWNQERRRAWQASRESKLQPLPSCEVCATPSPEEVQSWAQSFDKLMHSPAGRSVFRAFLRTEYSEENMLFWLACEELKAEANQHVVDEKARLIYEDYVSILSPKEVSLDSRVREGINKKMQEPSAHTFDDAQLQIYTLMHRDSYPRFLSSPTYRALLLQGPSQSSSEA
no binding: [14] | [15] | [16]
